Data from doi:10.1101/2021.07.21.453261.
No constants are given. Whether binding was seen depends on the method and setting. Binding seen in cells or lysates may run through a third protein. Here binding means that the protein was enriched with, or labelled near, the bait; the list need not be complete.

molecular target: TgGRA14 endogenously epitope-tagged at the C-terminus with 6x-HA (ME49Δku80 GRA14-HA6x) (Toxoplasma gondii (ME49)); assay: affinity purification with mass spectrometry

Binder	binding
Peflin (PEF1) (protein, UniProt Q9UBV8 1-284) MASYPYRQGCPGAAGQAPGAPPGSYYPGPPNSGGQYGSGLPPGGGYGGPAPGGPYGPPAGGGPYGHPNPGMFPSGTPGGPYGGAAPGGPYGQPPPSSYGAQQPGLYGQGGAPPNVDPEAYSWFQSVDSDHSGYISMKELKQALVNCNWSSFNDETCLMMINMFDKTKSGRIDVYGFSALWKFIQQWKNLFQQYDRDRSGSISYTELQQALSQMGYNLSPQFTQLLVSRYCPRSANPAMQLDRFIQVCTQLQVLTEAFREKDTAVQGNIRLSFEDFVTMTASRML	binds
TgGRA4 (protein, UniProt Q27002 21-345) GECSFGSHLADMAGLSGRHDKERHQAKKRYYHSMYGNQTPYPYANGQQASPPPQGQLLIIQNPDGSFMIVDQQGVPQVPQAAGGPGSPMNGGYYMPTGVYTAQVVPGTPGHPVQAIPQQPLRTQATATYYHPAAVPPPGPSVFVFTPSSVQPGAEVTPGYSGLQLRQQSQYGYSYPGTTSTPTPPPPASYGYPVFPAFPRLPAFSDSVSVSTEDSGLTGVKDSSSSESTVTPADEAASESEEGDKTSRKSKVKKGILTGLGVAATLAAAAAAAKAVKGFGGTRTSTAPAEAGKTELDDGYRPPPFNPRPSPYAELLKDLERMRKE	binds
TgGRA1 (protein, UniProt P13403 25-190) AEGGDNQSSAVSDRASLFGLLSGGTGQGLGIGESVDLEMMGNTYRVERPTGNPDLLKIAIKASDGSYSEVGNVNVEEVIDTMKSMQRDEDIFLRALNKGETVEEAIEDVAQAEGLNSEQTLQLEDAVSAVASVVQDEMKVIDDVQQLEKDKQQLKDDIGFLTGERE	binds
